# Source: the supplement of paper PMC6411743
# Sequences of proteins named here, by UniProt entry; tags and fusion partners are left off. A change or cut given only in a name is not applied to a line headed by its entry.
# UniProt Q14746: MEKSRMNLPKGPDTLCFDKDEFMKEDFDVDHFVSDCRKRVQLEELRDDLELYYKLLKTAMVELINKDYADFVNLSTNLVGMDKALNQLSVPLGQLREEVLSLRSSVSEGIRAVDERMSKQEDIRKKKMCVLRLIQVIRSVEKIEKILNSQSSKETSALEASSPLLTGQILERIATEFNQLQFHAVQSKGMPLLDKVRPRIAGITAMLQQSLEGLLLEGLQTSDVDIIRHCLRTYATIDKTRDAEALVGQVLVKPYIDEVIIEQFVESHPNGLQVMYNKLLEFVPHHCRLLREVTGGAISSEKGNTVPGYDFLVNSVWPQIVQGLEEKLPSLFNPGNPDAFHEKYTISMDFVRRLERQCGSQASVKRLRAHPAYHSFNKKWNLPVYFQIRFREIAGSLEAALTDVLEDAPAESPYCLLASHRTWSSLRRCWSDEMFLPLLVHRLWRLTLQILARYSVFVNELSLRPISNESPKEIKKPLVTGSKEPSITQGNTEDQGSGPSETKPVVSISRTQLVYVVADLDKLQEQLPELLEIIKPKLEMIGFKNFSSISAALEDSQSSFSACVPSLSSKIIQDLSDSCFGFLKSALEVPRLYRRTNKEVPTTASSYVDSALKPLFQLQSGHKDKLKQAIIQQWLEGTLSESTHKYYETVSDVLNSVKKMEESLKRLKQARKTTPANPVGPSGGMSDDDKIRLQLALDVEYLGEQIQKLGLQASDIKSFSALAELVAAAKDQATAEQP
# UniProt Q02833: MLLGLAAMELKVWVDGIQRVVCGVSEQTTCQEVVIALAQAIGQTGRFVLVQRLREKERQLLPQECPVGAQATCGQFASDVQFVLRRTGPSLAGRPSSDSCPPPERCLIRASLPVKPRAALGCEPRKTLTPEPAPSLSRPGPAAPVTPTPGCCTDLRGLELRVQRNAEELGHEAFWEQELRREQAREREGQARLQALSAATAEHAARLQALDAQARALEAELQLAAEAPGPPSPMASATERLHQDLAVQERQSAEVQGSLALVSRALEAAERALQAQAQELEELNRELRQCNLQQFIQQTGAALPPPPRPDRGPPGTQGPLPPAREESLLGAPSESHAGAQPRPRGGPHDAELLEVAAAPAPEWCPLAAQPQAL
# UniProt Q8WVF1: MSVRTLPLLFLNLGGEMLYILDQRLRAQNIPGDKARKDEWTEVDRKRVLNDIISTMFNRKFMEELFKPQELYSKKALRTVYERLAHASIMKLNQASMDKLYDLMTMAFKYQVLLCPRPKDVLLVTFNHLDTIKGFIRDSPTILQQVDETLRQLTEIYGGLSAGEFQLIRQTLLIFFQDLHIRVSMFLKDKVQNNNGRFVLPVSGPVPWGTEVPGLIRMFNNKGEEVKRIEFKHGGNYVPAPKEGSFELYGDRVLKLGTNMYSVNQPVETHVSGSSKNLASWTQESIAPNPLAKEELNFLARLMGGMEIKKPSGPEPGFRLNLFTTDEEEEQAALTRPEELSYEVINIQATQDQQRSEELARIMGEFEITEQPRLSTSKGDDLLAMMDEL
# UniProt A8MWD9, whole entry, looked up: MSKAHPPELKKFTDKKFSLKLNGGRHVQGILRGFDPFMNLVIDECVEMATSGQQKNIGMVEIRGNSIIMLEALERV
# UniProt P62308, whole entry, looked up: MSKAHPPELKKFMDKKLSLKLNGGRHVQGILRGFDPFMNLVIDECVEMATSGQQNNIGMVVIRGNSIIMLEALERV
# UniProt Q9H6X4: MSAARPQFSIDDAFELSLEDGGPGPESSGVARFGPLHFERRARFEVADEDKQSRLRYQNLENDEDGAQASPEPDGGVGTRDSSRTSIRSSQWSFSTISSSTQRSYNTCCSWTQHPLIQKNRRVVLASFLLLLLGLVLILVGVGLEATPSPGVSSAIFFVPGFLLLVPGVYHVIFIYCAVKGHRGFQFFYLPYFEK
# UniProt Q13506: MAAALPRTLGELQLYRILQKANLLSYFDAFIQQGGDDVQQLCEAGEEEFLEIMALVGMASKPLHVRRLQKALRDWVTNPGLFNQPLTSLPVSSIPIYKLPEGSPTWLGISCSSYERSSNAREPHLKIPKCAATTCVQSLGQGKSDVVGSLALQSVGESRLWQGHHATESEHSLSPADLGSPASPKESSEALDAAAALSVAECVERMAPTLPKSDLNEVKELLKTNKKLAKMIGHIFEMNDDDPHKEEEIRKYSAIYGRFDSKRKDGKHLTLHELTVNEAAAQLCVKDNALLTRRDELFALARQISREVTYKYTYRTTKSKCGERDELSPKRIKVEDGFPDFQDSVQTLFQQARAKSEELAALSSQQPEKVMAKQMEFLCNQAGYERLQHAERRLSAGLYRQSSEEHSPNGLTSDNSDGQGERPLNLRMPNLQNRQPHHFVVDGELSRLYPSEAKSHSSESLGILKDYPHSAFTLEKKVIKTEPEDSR
# UniProt Q9NRN9: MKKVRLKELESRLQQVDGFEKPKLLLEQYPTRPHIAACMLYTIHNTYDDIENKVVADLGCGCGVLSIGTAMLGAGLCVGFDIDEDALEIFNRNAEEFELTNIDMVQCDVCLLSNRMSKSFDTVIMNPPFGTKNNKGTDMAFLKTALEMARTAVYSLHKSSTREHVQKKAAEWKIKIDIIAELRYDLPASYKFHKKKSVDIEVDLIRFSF
# UniProt A6NK58: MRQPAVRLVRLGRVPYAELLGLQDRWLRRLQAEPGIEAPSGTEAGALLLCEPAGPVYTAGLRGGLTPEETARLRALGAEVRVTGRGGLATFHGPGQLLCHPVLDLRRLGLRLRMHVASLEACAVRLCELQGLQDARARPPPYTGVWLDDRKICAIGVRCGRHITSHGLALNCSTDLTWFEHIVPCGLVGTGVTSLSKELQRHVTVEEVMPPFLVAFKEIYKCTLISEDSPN
# UniProt Q9NYB9: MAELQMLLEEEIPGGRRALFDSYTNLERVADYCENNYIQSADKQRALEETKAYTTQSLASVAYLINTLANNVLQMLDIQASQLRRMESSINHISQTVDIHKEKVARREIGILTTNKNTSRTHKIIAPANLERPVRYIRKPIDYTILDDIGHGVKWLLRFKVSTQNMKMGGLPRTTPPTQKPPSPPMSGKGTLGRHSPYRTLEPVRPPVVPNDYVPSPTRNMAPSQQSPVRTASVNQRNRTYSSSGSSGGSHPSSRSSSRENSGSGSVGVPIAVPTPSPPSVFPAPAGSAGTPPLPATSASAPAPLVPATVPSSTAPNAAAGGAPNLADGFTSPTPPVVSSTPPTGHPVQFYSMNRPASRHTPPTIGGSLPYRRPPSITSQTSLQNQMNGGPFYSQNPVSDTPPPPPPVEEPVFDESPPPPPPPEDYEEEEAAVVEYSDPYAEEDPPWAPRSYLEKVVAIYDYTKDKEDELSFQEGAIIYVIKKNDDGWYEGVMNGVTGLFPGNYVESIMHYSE
# UniProt P42892: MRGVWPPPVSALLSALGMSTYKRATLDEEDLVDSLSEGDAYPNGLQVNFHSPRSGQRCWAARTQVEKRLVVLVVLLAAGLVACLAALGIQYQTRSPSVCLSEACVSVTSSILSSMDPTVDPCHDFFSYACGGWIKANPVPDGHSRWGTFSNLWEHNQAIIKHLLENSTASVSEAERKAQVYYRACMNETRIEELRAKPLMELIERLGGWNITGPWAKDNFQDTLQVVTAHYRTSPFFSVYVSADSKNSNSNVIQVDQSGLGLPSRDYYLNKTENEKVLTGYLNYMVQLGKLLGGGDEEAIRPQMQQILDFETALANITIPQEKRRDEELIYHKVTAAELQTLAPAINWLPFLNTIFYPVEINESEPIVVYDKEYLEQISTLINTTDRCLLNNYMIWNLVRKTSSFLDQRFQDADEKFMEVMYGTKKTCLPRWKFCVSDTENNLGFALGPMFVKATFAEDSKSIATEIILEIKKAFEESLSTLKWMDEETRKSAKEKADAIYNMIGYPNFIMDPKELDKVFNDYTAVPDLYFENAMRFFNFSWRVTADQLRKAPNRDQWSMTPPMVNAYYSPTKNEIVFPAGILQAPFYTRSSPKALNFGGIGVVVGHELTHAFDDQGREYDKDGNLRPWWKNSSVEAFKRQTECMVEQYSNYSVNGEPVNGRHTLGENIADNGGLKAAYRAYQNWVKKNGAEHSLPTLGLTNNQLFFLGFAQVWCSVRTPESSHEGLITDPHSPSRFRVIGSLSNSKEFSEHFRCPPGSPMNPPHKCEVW
# UniProt Q7Z3B3: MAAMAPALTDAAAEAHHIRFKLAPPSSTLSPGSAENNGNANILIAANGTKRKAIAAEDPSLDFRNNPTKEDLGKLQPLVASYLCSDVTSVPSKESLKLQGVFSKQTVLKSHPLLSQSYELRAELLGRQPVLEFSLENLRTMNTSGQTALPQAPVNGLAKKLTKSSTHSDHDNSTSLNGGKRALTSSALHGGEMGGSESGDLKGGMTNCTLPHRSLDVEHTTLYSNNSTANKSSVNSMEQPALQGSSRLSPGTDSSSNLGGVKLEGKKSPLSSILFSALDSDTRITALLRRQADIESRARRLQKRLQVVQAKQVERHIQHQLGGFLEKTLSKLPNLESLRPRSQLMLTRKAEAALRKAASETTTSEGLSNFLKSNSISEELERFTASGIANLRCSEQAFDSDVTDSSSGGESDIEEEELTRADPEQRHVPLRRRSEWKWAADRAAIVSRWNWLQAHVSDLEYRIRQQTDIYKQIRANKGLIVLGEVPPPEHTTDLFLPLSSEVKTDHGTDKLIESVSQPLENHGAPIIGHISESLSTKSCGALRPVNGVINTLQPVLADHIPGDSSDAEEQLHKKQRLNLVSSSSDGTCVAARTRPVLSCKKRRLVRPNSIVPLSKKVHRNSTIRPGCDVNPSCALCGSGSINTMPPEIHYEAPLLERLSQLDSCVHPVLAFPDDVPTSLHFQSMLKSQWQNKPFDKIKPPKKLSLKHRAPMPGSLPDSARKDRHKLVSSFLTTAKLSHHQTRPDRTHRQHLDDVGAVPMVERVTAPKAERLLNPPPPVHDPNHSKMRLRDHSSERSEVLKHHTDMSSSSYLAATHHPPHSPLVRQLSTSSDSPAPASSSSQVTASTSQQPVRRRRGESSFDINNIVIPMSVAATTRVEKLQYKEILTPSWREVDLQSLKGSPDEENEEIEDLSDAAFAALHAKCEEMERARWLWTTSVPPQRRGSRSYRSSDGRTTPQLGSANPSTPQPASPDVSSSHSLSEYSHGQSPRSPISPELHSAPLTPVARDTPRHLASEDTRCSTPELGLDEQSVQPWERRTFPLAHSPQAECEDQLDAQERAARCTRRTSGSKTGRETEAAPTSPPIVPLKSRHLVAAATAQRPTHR
# UniProt Q9Y6X4: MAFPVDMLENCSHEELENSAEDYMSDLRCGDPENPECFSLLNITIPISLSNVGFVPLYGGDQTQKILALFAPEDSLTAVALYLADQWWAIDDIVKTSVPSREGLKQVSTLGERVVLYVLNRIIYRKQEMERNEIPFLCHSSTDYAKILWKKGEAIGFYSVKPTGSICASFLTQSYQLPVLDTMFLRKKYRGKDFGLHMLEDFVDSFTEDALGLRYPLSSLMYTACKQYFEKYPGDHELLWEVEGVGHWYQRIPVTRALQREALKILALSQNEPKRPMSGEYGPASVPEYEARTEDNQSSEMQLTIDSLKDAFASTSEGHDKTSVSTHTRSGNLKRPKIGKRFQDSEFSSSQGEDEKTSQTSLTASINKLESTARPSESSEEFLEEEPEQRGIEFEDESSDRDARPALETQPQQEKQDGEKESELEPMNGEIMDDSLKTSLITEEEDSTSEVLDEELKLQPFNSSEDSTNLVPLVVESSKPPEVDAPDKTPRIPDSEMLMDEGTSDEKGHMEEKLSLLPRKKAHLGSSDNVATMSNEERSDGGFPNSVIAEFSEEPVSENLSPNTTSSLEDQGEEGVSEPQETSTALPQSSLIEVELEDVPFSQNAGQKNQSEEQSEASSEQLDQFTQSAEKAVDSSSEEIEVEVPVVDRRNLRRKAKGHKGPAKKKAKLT
# UniProt Q7Z6J8: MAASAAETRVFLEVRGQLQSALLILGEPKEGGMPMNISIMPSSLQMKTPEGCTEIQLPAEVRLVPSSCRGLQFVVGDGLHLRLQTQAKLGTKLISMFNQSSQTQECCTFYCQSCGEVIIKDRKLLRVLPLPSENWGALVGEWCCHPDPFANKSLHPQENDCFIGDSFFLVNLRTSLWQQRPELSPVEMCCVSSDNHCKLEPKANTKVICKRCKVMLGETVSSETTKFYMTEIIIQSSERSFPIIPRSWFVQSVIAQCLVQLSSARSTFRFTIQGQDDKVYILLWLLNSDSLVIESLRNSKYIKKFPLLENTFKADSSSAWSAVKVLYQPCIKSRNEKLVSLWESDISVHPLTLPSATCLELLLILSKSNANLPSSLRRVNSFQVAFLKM
# UniProt A8MPS7: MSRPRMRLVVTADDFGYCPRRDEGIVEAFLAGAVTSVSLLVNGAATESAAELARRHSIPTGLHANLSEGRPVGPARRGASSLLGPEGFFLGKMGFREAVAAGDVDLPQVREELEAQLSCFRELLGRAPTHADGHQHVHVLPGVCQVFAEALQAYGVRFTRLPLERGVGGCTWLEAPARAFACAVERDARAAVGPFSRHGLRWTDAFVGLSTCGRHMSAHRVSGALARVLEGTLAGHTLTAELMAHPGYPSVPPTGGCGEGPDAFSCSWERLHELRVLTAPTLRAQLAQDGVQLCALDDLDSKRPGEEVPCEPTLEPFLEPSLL
# ± gives the standard deviation of the averaged measurements. Only a part is listed here, and it is no random draw. Most values lie at the level of the controls, where differences are scatter.
# Compound: Nc1ncnc2c1ncn2[C@@H]1O[C@H](COP(=O)(O)OP(=O)(O)OP(=O)(O)O)[C@@H](O)[C@H]1O [adenosine triphosphate]
# Test: NP40-soluble protein abundance relative to vehicle (solubility fold change) (ratio); higher = more soluble protein in presence of ATP
# In short: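 Eight concentrations, 0.1 to 10 mM, were tested on Jurkat crude lysate for 10 min at room temperature and then 3 min at 37 °C, in three independent experiments. The lysate was solubilised with 0.8% NP40 and benzonase, ultracentrifuged, and the supernatant TMT-labelled for LC-MS/MS. Each value is the fold change against the detergent-processed vehicle in its own replicate, from vsn-normalised intensities.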
Target,NP40-soluble protein abundance (concentration: 0.1mM),NP40-soluble protein abundance (concentration: 0.5mM)
A0A0U1RRH6 (UniProt O94880),1.01 ± 0.058,1 ± 0.017
UniProt A4D1P6 and related entries,0.947 ± 0.12,0.971 ± 0.11
B7Z2Y2 and related entries (UniProt Q14746),0.999 ± 0.071,0.988 ± 0.1
A0A0G2JLR5|A0A0G2JMW4|Q02833 and related entries (UniProt Q02833),0.898 ± 0.061,0.916 ± 0.039
B4DEM9 and related entries (UniProt Q9Y2S7),1.08 ± 0.12,1.06 ± 0.093
C9JF58 and related entries (UniProt Q8WVF1),1.01 ± 0.058,0.985 ± 0.082
C9JQV3 and related entries (UniProt Q8N1F8),1.01 ± 0.012,1.02 ± 0.11
A8MWD9 and related entries (UniProt P62308+A8MWD9),1.039 ± 0.0044,1.05 ± 0.12
PGP (UniProt A6NDG6),0.992 ± 0.056,1.01 ± 0.035
UniProt A2VDJ0 and related entries,1.04 ± 0.082,0.996 ± 0.054
B4E0E3 and related entries (UniProt Q9H6X4),0.98 ± 0.11,0.853 ± 0.039
B8ZZS2 and related entries (UniProt Q13506),1.15 ± 0.18,0.912 ± 0.15
UniProt B7ZLF3,1.04 ± 0.068,1 ± 0.061
B0YIW6 and related entries (UniProt P48444),1.04 ± 0.053,1.02 ± 0.034
B8ZZC8 and related entries (UniProt Q9NRN9),1.1 ± 0.094,1.05 ± 0.07
LIPT2 (UniProt A6NK58),1.01 ± 0.069,0.934 ± 0.12
A6NFX8 and related entries (UniProt Q9UKK9),1.07 ± 0.083,1.05 ± 0.026
B4DI03 and related entries (UniProt Q9BY50),1.02 ± 0.11,1.03 ± 0.033
B7Z836 and related entries (UniProt Q9NYB9),0.971 ± 0.016,1.06 ± 0.12

Target,NP40-soluble protein abundance (concentration: 0.1mM),NP40-soluble protein abundance (concentration: 0.5mM)
D6REL5 and related entries (UniProt Q6UWZ7),1.03 ± 0.052,1.01 ± 0.13
A6NG10 and related entries (UniProt Q969T9),0.937 ± 0.025,1 ± 0.043
B4DKB2 and related entries (UniProt P42892),0.979 ± 0.048,0.935 ± 0.046
C9J406 and related entries (UniProt Q16891),1 ± 0.049,1.01 ± 0.076
C9JLT7 and related entries (UniProt Q8TBF5),0.92 ± 0.076,0.941 ± 0.051
D6RCD0 and related entries (UniProt Q8NBQ5),0.961 ± 0.042,0.986 ± 0.056
A0A0G2JNB1|A0A0G2JNT7|Q7Z3B3 and related entries (UniProt Q7Z3B3),0.98 ± 0.053,1.05 ± 0.084
A0A0U1RQK7 (UniProt O43432),1.01 ± 0.012,1.05 ± 0.046
C9JZB0 and related entries (UniProt Q9BT40),1.02 ± 0.016,1 ± 0.087
A6NMQ1 and related entries (UniProt P09884),1.04 ± 0.03,1.02 ± 0.038
A0A0J9YXM6|I3L1G2 and related entries (UniProt Q562E7),0.987 ± 0.12,0.919 ± 0.17
C9J2U0 and related entries (UniProt P24864),1.05 ± 0.06,1.01 ± 0.088
D6RB01 and related entries (UniProt Q9Y6X4),0.987 ± 0.033,0.962 ± 0.056
A0A0G2JHC2|Q6NYC8 (UniProt Q6NYC8),0.927 ± 0.02,0.934 ± 0.049
D6RD24 and related entries (UniProt Q7Z6J8),1.03 ± 0.19,0.99 ± 0.089
YDJC (UniProt A8MPS7),1.06 ± 0.022,1 ± 0.054
C9J2Y9 and related entries (UniProt P30876),1.04 ± 0.045,1.07 ± 0.027
C5orf51 (UniProt A6NDU8),1.03 ± 0.043,0.993 ± 0.051
B1AM27 and related entries (UniProt O14795),1.02 ± 0.021,1 ± 0.049

# Some of the entries so far, as tab-separated lines:
Target	NP40-soluble protein abundance (concentration: 0.1mM)	NP40-soluble protein abundance (concentration: 0.5mM)
A0A0U1RQK7 (UniProt O43432)	1.01 ± 0.012	1.05 ± 0.046
C9JZB0 and related entries (UniProt Q9BT40)	1.02 ± 0.016	1 ± 0.087
A6NMQ1 and related entries (UniProt P09884)	1.04 ± 0.03	1.02 ± 0.038
